Measurements published in publication doi:10.1101/2024.05.08.592654.
Results are given in words; binding and its absence hold for the method and conditions named. In cells and extracts the contact can be indirect. Here binding means that the protein was enriched with, or labelled near, the bait; the list need not be complete. Each block holds one binder with its values, some of them ahead of it.

Experiments:
[1] = molecular target: GFP-PNUTS^W726A-HA (non-PP1 binding mutant) (Drosophila); assay: affinity purification with mass spectrometry
[2] = molecular target: GFP-PNUTS^WT-HA (PP1 Nuclear Targeting Subunit, wild type) (Drosophila); assay: affinity purification with mass spectrometry

- binding [1]: binds
- binding [2]: binds
B1: Acinus (protein, UniProt Q9VJ12 1-739)
chain: MRRRSERKKSSSPAPVPVAVARRSRRSRKVSENEKTEVETPVVAQNNEAECPKVPPASQEINEARASSEERAGSGASPVRRSRGSRTTPRKRTESKGGDKKVDTIPEEEPENGKDVEKDAVEEEKTVAPPAANESESEDRAKTEDQQAQDDESCAEPAVVKDDDVEKEDLKPQQEVPTSTDDDTKQSEPEQEVKVPSPSSKDEEHLKTTSDVLDIQTEEVDERDEEASAPAERRETKKRHKEQIKEQQPAEEEEHKENHKQIDENPEQIHDEPADLSNDKHDPCLNSSATNTTGAPVLQQQRSVRKRKWLTNKKSSDRTPPVLAISTDSLKNIIADVVQPVPLSDVQLESSSEEEGLVTSDRDSERSASPAPPSEASKDRDNKGNTANTCDTTAEASADNEGAGAAPPAAADTVSAQVSLSKATVSTAAPHIVRDPSPARNRASHVLYITNLVRPFTVLQLKGLLARTGKIVEEDGFWIDRIKSKCYVAYSTEDEAIETRHALHGVRWPVSNPKCLNVDFGSRTDMDRAILSTKDEAPRYGQENTRDNQQSGNAWSRLEPSDKKPARPVREWDVGKKEPSDHDKHSNDRRRDSKDRLDSRSRDAERAGQERKRSRDREGRGRDRERERLDRNAHARSRSGSPASKTKKENEPPIRLLDDLFRKTKGTPCIYWLPLTPEAIAEKEAFRQKRIEEHKLRIKEREERQKEREKDRDRQRETRRNRSNERRRSRSRERERRRY

- binding [2]: binds
B2: Drosophila Wdr82 (protein, UniProt Q9VLN1 1-317)
chain: MKIKLIDSVVRSFKVAKIFRENTDKINAIDFAPNGEHLISCSEDDQIVIYDCEKGTQSRTVNSKKYGVDLIHFTHANNTAIHSSTKVDDTIRYLSLHDNKYLRYFPGHTKKVISLCISPVEDTFLSGSLDKTLRLWDLRSPNCQGLMHLSGRPIAAYDPEGLIFAAGVNSESIKLYDLRSFDKGPFVTFKLNQEKECDWTGLKFSRDGKTILISTNGSVIRLVDAFHGTPLQTFTGYPNNKGIPIEASFSPDSQFIFSGSTDGRVHIWNADTGNKVSVLNGDHPGPVQCVQFNPKYMMLASACTNMAFWLPTSEEGL

- binding [1]: binds
- binding [2]: binds
B3: Pitslre/Cdk11 (enzyme, UniProt Q9VPC0 1-952)
chain: MVNSSGSEDGQLRSPNDVHYHSRGEEDEHEGDADALYIQPPQASRESGSGPRREKKKHSRERRRHKERDDVGGAALALERDHRYDYRSREEHYHHHQRERSSNAAAAYAKHHLGHAYHYPQPPQQQQQPLPPAPSYAAHHYHHHQHLSGARAAPREYHSYPSGYHSGSRHGDYPMEEPTRRSSKYAESKDAESLEQDLRSRLLKKRHNYVKDYETEENYEHRVERSDRREGGRKERERTVRSTHKQNRHDRVIELLDSPEQEHHHQHQHKSHRSKWREEVEVIRRKVPEDLELLARREKLLAAERESRQRKQTAREELEARRELLRERNEHSDALSPTTVAASVTAGLNIHVKRKSKPDNYEKEIKLKKRREDDIEVIRDDDDEESEESDSNEEVPEQDSEGSATESGSEDSYASKKKSKIKSKSQLEDDDEDLPLPDSPLSVGELYKSPKQRQRSRSVSSKSSSQSSRSSRSRSRSRSQSSLEDEVDRQDVGADASPSSSTRSEERGMTQEQPEEKPEEKLKEKQKSLEEQIPCDDKGIPLPNYYPGVQGCRSVEEFQCLNRIEEGTYGVVYRAKDKRTNEIVALKRLKMEKEKEGFPITSLREINTLLKGQHPNIVTVREIVVGSNMDKIFIVMDYVEHDLKSLMETMKNRKQSFFPGEVKCLTQQLLRAVAHLHDNWILHRDLKTSNLLLSHKGILKVGDFGLAREYGSPIKKYTSLVVTLWYRAPELLLCSPVYSTPIDVWSVGCIFAEFLQMLPLFPGKSEIDELNRIFKELGTPNEKIWPGYTELPAVKNMLSQNSQFTEYPVSQLRKHFQEKTSEMGLSLLQGLLTYDPKQRLSADAALKHGFFKELPLPIDPSMFPTWPAKSELGARKAQASSPKPPSGGSQFKQLGRDEPIIVGPGNKLSSGIITGNKKSHGAGGSSASTGFVLNAGITQRQLAMGPGFSLKF

- binding [2]: binds
B4: Cdk12 (enzyme, UniProt Q9VP22 1-1157)
chain: MHASSAAATALVEYSDVSSEDFSDQEAGDLDADAGKGAGNIKKPKPAPDNQFSKGRLDAKPDKEGYDNYRSRRAEDSSDPVAAGSRQTSSSEATNPREEPSQASNTSKDELWGREIYMSSDSIDTDELEAEMKRQKRKKQKKEKHKHKSKKKSKKRKKKRAKSYSSIDSMSDNDINALLDRRYTPPTAPSKSNERTVSAAPSSFTPHNLKESSSPATPPPVRRPNTNSNYYGESSLETANSALGSNLQVTVTNKQSISNRLRSPPPSSRSSGNGPRFGNSPRTPPPSHYSSSGGGGVGSGSVVRDSRSSRYVNSPHKEDVSAHHRSSHDHGYQGRYSGAGSSSHDTRKVKRLSPELDRYNHQPSTPPHKRRKFSDGREVGLGNFEHSRHHSGKYERYSRDRYSRRSSRSPSVQHSRSRQSPSGGLSSGSNAFRHGGSHKHKYGTTVSSTPSHTTRTSKRASGTGTSGDRYSRSPRTSSRYMESSPPSPVGASGSHHYHHRRSPRMRQRTRGDSRRRSPSSASSESSASRSRSPTSRDLKHKREEYIKKISETSLFAELVKDRHKRQKALKEIIERQEENSNSNSNGALTINDNSSSVDGNTPNAADGRSAPGSGTPAAASTTSNGLQALGSKPDLDLNNIPMPNKQNDSVVSNPASNADVPDSVAQLKQPLLVPPFSASKNNIKPKSLTSLPLPPGMNVLDLAGARSPSPGQKKESDEKNVTSSGSANKSVLNLPMPPVIPGSEELSGDDDVIDSPEDFDAPAVGTVHGHGGGPGTTRQRPVILNRRDSRNNVRDWGERCVDVFEMIAQIGEGTYGQVYKARDHHTNDMVALKKVRLEHEKEGFPITAVREIKILRQLNHRNIVNLHEIVTDKQDAVEFRKDKGSFYLVFEYMDHDLMGLLESGMVDFNEENNASIMKQLLDGLNYCHKKNFLHRDIKCSNILMNNRGKVKLADFGLARLYNADDRERPYTNKVITLWYRPPELLLGEERYGPSIDVWSCGCILGELFVKRPLFQANAEMAQLETISKICGSPVPAVWPNVIKLPLFHTLKQKKTHRRRLREDFEFMPAPALDLLDKMLDLDPDKRITAEDALRSPWLRKINPDEMPTPQLPTWQDCHELWSKKRRRQMREQQESLPPTVIASTKYQQHGATMVGDA
